For at least one entry, the source does not settle the construct or the ends of the probe. At least one result comes from cells or an extract, where the contact may be indirect.
Biological target: Stat3alpha-FLAG (S3WT) (mouse) (UniProt P42227)
Experiment: EMSA
Settings: nuclear extract of S3WT6 cells, serum-starved 2 days, higher than parental, band eliminated by excess unlabeled probe; Panomics Gel-Shift kit binding buffer (composition not given), 3 ug nuclear extract, 10 ng biotin probe, 1 ug poly(dI-dC), 10 ul, 40 min at 18 C; 6% native PAGE, 0.5x TBE; protein in an extract; protein details: C-terminal FLAG; label: biotin

By UniProt entry, the sequences of proteins in these tests, tags left out.
UniProt P42227, whole entry: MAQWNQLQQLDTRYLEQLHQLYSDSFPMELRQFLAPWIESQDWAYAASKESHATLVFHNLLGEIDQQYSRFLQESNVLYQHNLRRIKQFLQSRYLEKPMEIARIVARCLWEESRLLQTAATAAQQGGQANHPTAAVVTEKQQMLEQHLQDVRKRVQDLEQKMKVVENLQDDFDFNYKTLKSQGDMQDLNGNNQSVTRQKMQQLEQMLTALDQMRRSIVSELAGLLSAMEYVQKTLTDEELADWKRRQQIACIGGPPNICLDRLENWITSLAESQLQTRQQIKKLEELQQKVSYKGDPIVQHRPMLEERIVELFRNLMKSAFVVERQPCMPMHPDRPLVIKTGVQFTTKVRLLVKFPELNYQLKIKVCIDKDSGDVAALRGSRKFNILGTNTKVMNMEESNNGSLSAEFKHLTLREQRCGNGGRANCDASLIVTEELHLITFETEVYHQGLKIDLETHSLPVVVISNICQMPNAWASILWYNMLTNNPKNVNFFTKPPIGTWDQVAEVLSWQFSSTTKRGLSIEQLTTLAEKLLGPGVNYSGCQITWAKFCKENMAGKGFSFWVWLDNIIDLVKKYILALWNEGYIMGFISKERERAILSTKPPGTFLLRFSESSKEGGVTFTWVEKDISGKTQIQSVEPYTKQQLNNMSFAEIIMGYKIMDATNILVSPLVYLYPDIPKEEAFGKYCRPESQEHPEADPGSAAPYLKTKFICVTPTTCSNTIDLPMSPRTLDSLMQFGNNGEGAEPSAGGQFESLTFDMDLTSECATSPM

## GATCCTTCTGGGAATTCCTAGATC (double strand) [Stat3 response element probe (c-fos promoter)]
  binding result: binds

— paper PMC1502137
